Experimental data: patent publication US7951779B2, “Method of protecting cells against damage and pharmaceutical composition comprising leumorphin” (Postech Academy-Industry Foundation, priority 2005, dated 2011)
Counter-ions that a name gives are not always drawn. Some results were stated once for a whole list of compounds, not compound by compound.

Test system: PC12 cells
Experiment: Competition binding assay of 125I-labeled leumorphin in PC12 cells
Set-up: species or system rat
Settings: 25 pM 125I-labeled leumorphin, 3 hr, 4° C.
Procedure: Ligand binding analysis was performed as previously described (Bae et al., 2004). Briefly, PC12 cells were seeded at a density of 4×10^5 cells/well into a 12-well plate and cultured overnight. After incubating the cells in blocking buffer (33 mM HEPES (pH 7.5) and 0.1% BSA in RPMI 1640) for 2 hr, 25 pM of ^125I-labeled leumorphin dissolved in binding buffer (PBS containing 0.1% BSA) was added to the cells in the absence or presence of unlabeled ligands and incubated for 3 hr at 4° C. The samples were then washed five times with ice-cold binding buffer, and 500 μl of 1 N NaOH was added to each well. After 10 min at room temperature, the lysates were collected and counted using a gamma counter.
We investigated the possibility that leumorphin might have another binding site(s), in addition to the binding site for the KOR in PC12 cells. That is, an inhibition of [^125I]leumorphin binding in PC12 cells was investigated. PC12 cells were treated with various concentrations of unlabeled leumorphin, (−)-U-50488 and nor-BNI in the presence of ^125I-labeled leumorphin (25 pM) for 3 hr at 4° C. Specifically bound ^125I-labeled leumorphin was measured as described in “Materials and Methods”. For this purpose, we performed competition binding assay of ^125I-labeled leumorphin with unlabeled-agonists, leumorphin and (−)-U-50488, and an antagonist, nor-BNI.

Oc1ccc2c3c1O[C@H]1c4[nH]c5c(c4C[C@@]4(O)[C@@H](C2)N(CC2CC2)CC[C@]314)C[C@@]1(O)[C@H]2Cc3ccc(O)c4c3[C@@]1(CCN2CC1CC1)[C@H]5O4 [nor-BNI, nor-binaltorphimine dihydrochloride]
extent of inhibition of 125I-labeled leumorphin binding, relative to that induced by leumorphin: ≤ 20%
